# Assay results as given in the supplement of paper PMC8728848.
# Some of the results follow.
# What was measured:
# Assay in all cases: glycan array binding signal (z-score within array); higher = stronger binding
# Details in all cases: glycan notation: IUPAC condensed, linker removed
# Fuc(a1-2)Gal = target: Fuc(a1-2)Gal
# Summary of the method: (§1)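 The Consortium for Functional Glycomics database supplied 3228 glycan arrays, of which those lacking an available protein sequence were dropped. The binding signal, a within-array Z-score, was averaged across arrays of the same protein sequence and across linkers. Negative scores can be read as non-binding.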
# Fuc(a1-2)Gal(b1-3)GalNAc = target: Fuc(a1-2)Gal(b1-3)GalNAc
# Summary of the method: as §1
# [1] = target: Fuc(a1-2)Gal(b1-3)GalNAc(a1-3)[Fuc(a1-2)]Gal(b1-4)Glc
# Summary of the method: as §1
# [2] = target: Fuc(a1-2)Gal(b1-3)GalNAc(a1-3)[Fuc(a1-2)]Gal(b1-4)GlcNAc
# Summary of the method: as §1
# [3] = target: Fuc(a1-2)Gal(b1-3)GalNAc(b1-3)Gal
# Summary of the method: as §1
# [4] = target: Fuc(a1-2)Gal(b1-3)GalNAc(b1-3)Gal(a1-4)Gal(b1-4)Glc
# Summary of the method: as §1
# [5] = target: Fuc(a1-2)Gal(b1-3)GalNAc(b1-4)[Neu5Ac(a2-3)]Gal(b1-4)Glc
# Summary of the method: as §1
# Fuc(a1-2)Gal(b1-3)GlcNAc = target: Fuc(a1-2)Gal(b1-3)GlcNAc
# Summary of the method: as §1
# [6] = target: Fuc(a1-2)Gal(b1-3)GlcNAc(b1-2)Man(a1-3)[Fuc(a1-2)Gal(b1-3)GlcNAc(b1-2)Man(a1-6)]Man(b1-4)GlcNAc(b1-4)GlcNAc
# Summary of the method: as §1
# [7] = target: Fuc(a1-2)Gal(b1-3)GlcNAc(b1-2)Man(a1-3)[Fuc(a1-2)Gal(b1-3)GlcNAc(b1-2)Man(a1-6)]Man(b1-4)GlcNAc(b1-4)[Fuc(a1-6)]GlcNAc
# Summary of the method: as §1
# [8] = target: Fuc(a1-2)Gal(b1-3)GlcNAc(b1-3)Gal(b1-4)Glc
# Summary of the method: as §1
# [9] = target: Fuc(a1-2)Gal(b1-3)GlcNAc(b1-3)GalNAc
# Summary of the method: as §1
# [10] = target: Fuc(a1-2)Gal(b1-3)GlcNAc(b1-3)[Fuc(a1-2)Gal(b1-3)GlcNAc(b1-6)]GalNAc
# Summary of the method: as §1
# [11] = target: Fuc(a1-2)Gal(b1-3)GlcNAc(b1-3)[Gal(b1-4)GlcNAc(b1-6)]Gal(b1-4)Glc
# Summary of the method: as §1
# [12] = target: Fuc(a1-2)Gal(b1-3)GlcNAc(b1-3)[Neu5Ac(a2-6)Gal(b1-4)GlcNAc(b1-6)]Gal(b1-4)Glc
# Summary of the method: as §1
# [13] = target: Fuc(a1-2)Gal(b1-3)GlcNAc6S
# Summary of the method: as §1
# [14] = target: Fuc(a1-2)Gal(b1-3)[Fuc(a1-4)]GlcNAc
# Summary of the method: as §1
# [15] = target: Fuc(a1-2)Gal(b1-3)[Fuc(a1-4)]GlcNAc(b1-2)Man(a1-3)[Fuc(a1-2)Gal(b1-3)[Fuc(a1-4)]GlcNAc(b1-2)Man(a1-3)]Man(b1-4)GlcNAc(b1-4)GlcNAc
# Summary of the method: as §1
# [16] = target: Fuc(a1-2)Gal(b1-3)[Fuc(a1-4)]GlcNAc(b1-2)Man(a1-3)[Fuc(a1-2)Gal(b1-3)[Fuc(a1-4)]GlcNAc(b1-2)Man(a1-6)]Man(b1-4)GlcNAc(b1-4)[Fuc(a1-6)]GlcNAc(b1-4)[Fuc(a1-6)]GlcNAc
# Summary of the method: as §1
# [17] = target: Fuc(a1-2)Gal(b1-3)[Fuc(a1-4)]GlcNAc(b1-3)[Fuc(a1-3)[Gal(b1-4)]GlcNAc(b1-6)]Gal(b1-4)Glc
# Summary of the method: as §1
# [18] = target: Fuc(a1-2)Gal(b1-3)[Fuc(a1-4)]GlcNAc(b1-3)[Gal(b1-4)GlcNAc(b1-6)]Gal(b1-4)Glc
# Summary of the method: as §1
# Fuc(a1-2)Gal(b1-4)Glc = target: Fuc(a1-2)Gal(b1-4)Glc
# Summary of the method: as §1
# Fuc(a1-2)Gal(b1-4)Glc6S = target: Fuc(a1-2)Gal(b1-4)Glc6S
# Summary of the method: as §1
# Fuc(a1-2)Gal(b1-4)GlcNAc = target: Fuc(a1-2)Gal(b1-4)GlcNAc
# Summary of the method: as §1
# [19] = target: Fuc(a1-2)Gal(b1-4)GlcNAc(b1-2)Man
# Summary of the method: as §1
# [20] = target: Fuc(a1-2)Gal(b1-4)GlcNAc(b1-2)Man(a1-3)[Fuc(a1-2)Gal(b1-4)GlcNAc(b1-2)Man(a1-6)]Man(b1-4)GlcNAc(b1-4)GlcNAc
# Summary of the method: as §1
# [21] = target: Fuc(a1-2)Gal(b1-4)GlcNAc(b1-2)Man(a1-3)[Fuc(a1-2)Gal(b1-4)GlcNAc(b1-2)Man(a1-6)]Man(b1-4)GlcNAc(b1-4)[Fuc(a1-6)]GlcNAc
# Summary of the method: as §1
# [22] = target: Fuc(a1-2)Gal(b1-4)GlcNAc(b1-2)[Fuc(a1-2)Gal(b1-4)GlcNAc(b1-4)]Man(a1-3)[Fuc(a1-2)Gal(b1-4)GlcNAc(b1-2)Man(a1-6)]Man(b1-4)GlcNAc(b1-4)GlcNAc
# Summary of the method: as §1
# [23] = target: Fuc(a1-2)Gal(b1-4)GlcNAc(b1-3)Gal(b1-4)GlcNAc
# Summary of the method: as §1
# [24] = target: Fuc(a1-2)Gal(b1-4)GlcNAc(b1-3)Gal(b1-4)GlcNAc(b1-2)Man(a1-3)[Fuc(a1-2)Gal(b1-4)GlcNAc(b1-3)Gal(b1-4)GlcNAc(b1-2)Man(a1-6)]Man(b1-4)GlcNAc(b1-4)GlcNAc
# Summary of the method: as §1
binder,measurement,setting,value
Mermaid1 (Stilbonema majum) (protein) MGSSHHHHHHSSGLVPRGSHMAASGWLRSPQGTVVKLYRRSLSWSKADEFCKDVDGRLVVDRTADMHLFLIKNVLKEKKSRVWVGLRRTAPHSRTWIWSDGTRQNEDDLDANLWLRDEPNDAAGEEECALFMYSPWEKAWGLNDYLCRGGCRSYQFICEKWIR,glycan array binding signal (z-score),Fuc(a1-2)Gal,0.333
same,glycan array binding signal (z-score),Fuc(a1-2)Gal(b1-3)GalNAc,-0.564
same,glycan array binding signal (z-score),[1],-0.132
same,glycan array binding signal (z-score),[2],-1.01
same,glycan array binding signal (z-score),[3],-0.184
same,glycan array binding signal (z-score),[4],-0.588
same,glycan array binding signal (z-score),[5],-0.077
same,glycan array binding signal (z-score),Fuc(a1-2)Gal(b1-3)GlcNAc,-0.485
same,glycan array binding signal (z-score),[6],1.45
same,glycan array binding signal (z-score),[7],0.195
same,glycan array binding signal (z-score),[8],-0.434
same,glycan array binding signal (z-score),[9],-0.234
same,glycan array binding signal (z-score),[10],0.957
same,glycan array binding signal (z-score),[11],-0.999
same,glycan array binding signal (z-score),[12],-0.551
same,glycan array binding signal (z-score),[13],-0.184
same,glycan array binding signal (z-score),[14],-0.578
same,glycan array binding signal (z-score),[15],0.204
same,glycan array binding signal (z-score),[16],-0.433
same,glycan array binding signal (z-score),[17],-0.948
same,glycan array binding signal (z-score),[18],-0.711
same,glycan array binding signal (z-score),Fuc(a1-2)Gal(b1-4)Glc,-0.648
same,glycan array binding signal (z-score),Fuc(a1-2)Gal(b1-4)Glc6S,2.97
same,glycan array binding signal (z-score),Fuc(a1-2)Gal(b1-4)GlcNAc,-0.703
same,glycan array binding signal (z-score),[19],-0.596
same,glycan array binding signal (z-score),[20],-0.371
same,glycan array binding signal (z-score),[21],3.06
same,glycan array binding signal (z-score),[22],-0.173
same,glycan array binding signal (z-score),[23],0.508
same,glycan array binding signal (z-score),[24],1.14

# Reprinted at random: 2 entries already listed, in no set order.
binder,measurement,setting,value
Mermaid1 (Stilbonema majum) (protein) MGSSHHHHHHSSGLVPRGSHMAASGWLRSPQGTVVKLYRRSLSWSKADEFCKDVDGRLVVDRTADMHLFLIKNVLKEKKSRVWVGLRRTAPHSRTWIWSDGTRQNEDDLDANLWLRDEPNDAAGEEECALFMYSPWEKAWGLNDYLCRGGCRSYQFICEKWIR,glycan array binding signal (z-score),[19],-0.596
same,glycan array binding signal (z-score),[5],-0.077
